Reference: PubChem BioAssay AID1259308 (NCATS, 2017)
Shown is a random part of about 59,000 reagents tested. About 1,510 of all reagents (2.6%) count as active. 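Calls use total luciferase alone and ignore viability, so some active siRNAs may act by altering cell number.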 Entries without a mark were called inactive. Reagents against one gene are numbered here. Reagent sequences are not shown.

- Test: 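Knock-downs that increase output of a recombinant reporter protein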 (primary screen)
- System: human HEK293 embryonic kidney cells stably expressing firefly luciferase (HEK-CMV-Luc2-Hygro)
- Reagents: single siRNA against human genes, 0.8 pmol siRNA per well
- Duration: 72 h
- Measurement: 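Luciferase light (ONE-Glo) measured on one replicate plate set and viability (CellTiter-Glo) on the other, scaled to a negative control siRNA, with robust z-scores and luciferase per cell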
- Reading the numbers: total luciferase, z-score and total luciferase, % of control: higher = more reporter protein produced; luciferase per cell, z-score: higher = more reporter output per viable cell; viable cells, % of control: higher = more viable cells
- Rule for the call: 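Active when the median/MAD z-score for overall luciferase is greater than 3; a gene was taken forward for validation with new siRNAs if at least two of its three siRNAs passed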
- Meaning of the calls: active = raised luciferase; inactive = no rise

gene	siRNA no.	total luciferase, z-score	total luciferase, % of control	luciferase per cell, z-score	viable cells, % of control
CGRRF1 (cell growth regulator with ring finger domain 1)	1	0.265	87.2	-0.0343	98.3
CGRRF1 (cell growth regulator with ring finger domain 1)	2	-2.49	32.5	-2.64	72.6
CGRRF1 (cell growth regulator with ring finger domain 1)	3	0.0352	82.6	0.069	90.6
CAMK1G (calcium/calmodulin dependent protein kinase IG)	1	-2.65	29.2	-3.1	73.8
CAMK1G (calcium/calmodulin dependent protein kinase IG)	2	-0.05	80.9	-0.388	100
CAMK1G (calcium/calmodulin dependent protein kinase IG)	3	-0.668	68.6	-0.365	84.4
VWA1 (von Willebrand factor A domain containing 1)	1	-0.372	74.5	-0.708	100
VWA1 (von Willebrand factor A domain containing 1)	2	-0.484	72.3	-0.648	95.8
VWA1 (von Willebrand factor A domain containing 1)	3	0.546	92.7	-0.523	119
PPIAP35 (peptidylprolyl isomerase A pseudogene 35)	1	0.303	87.9	0.0358	97.3
PPIAP35 (peptidylprolyl isomerase A pseudogene 35)	2	0.19	85.7	0.453	85
PPIAP35 (peptidylprolyl isomerase A pseudogene 35)	3	-0.278	76.4	-0.0342	86.1
KCNJ10 (potassium inwardly rectifying channel subfamily J member 10)	1	4.43 (active)	170	2.25	105
KCNJ10 (potassium inwardly rectifying channel subfamily J member 10)	2	6.78 (active)	217	4.04	83.5
KCNJ10 (potassium inwardly rectifying channel subfamily J member 10)	3	0.0514	82.9	-0.227	98.4
ATG9B (autophagy related 9B)	1	0.845	98.7	0.226	104
ATG9B (autophagy related 9B)	2	2.32	128	1.87	87.5
ATG9B (autophagy related 9B)	3	-1.23	57.4	-1.17	87.2
SSR4 (signal sequence receptor subunit 4)	1	0.288	87.6	0.0207	97.4
SSR4 (signal sequence receptor subunit 4)	2	-0.159	78.7	0.132	85
SSR4 (signal sequence receptor subunit 4)	3	-0.364	74.6	-0.425	93.3
BMS1P9 (BMS1 pseudogene 9)	1	0.347	88.8	0.682	82.9
BMS1P9 (BMS1 pseudogene 9)	2	6.05 (active)	202	2.95	104
BMS1P9 (BMS1 pseudogene 9)	3	0.274	87.3	1.18	71.6

2 consecutive reagents already listed, for reference:
gene	siRNA no.	total luciferase, z-score	total luciferase, % of control	luciferase per cell, z-score	viable cells, % of control
CGRRF1 (cell growth regulator with ring finger domain 1)	3	0.0352	82.6	0.069	90.6
CAMK1G (calcium/calmodulin dependent protein kinase IG)	1	-2.65	29.2	-3.1	73.8
